From the supplement of paper PMC6411743
± gives the standard deviation of the averaged measurements. This is a selection; strong and weak results do not stand in their true shares.

How the values were obtained:
Assay in all cases: NP40-soluble protein abundance relative to vehicle (solubility fold change) (ratio); higher = more soluble protein in presence of ATP
UniProt Q9NUS5 = molecular target: T1, UniProt Q9NUS5
T1 sequence (whole entry): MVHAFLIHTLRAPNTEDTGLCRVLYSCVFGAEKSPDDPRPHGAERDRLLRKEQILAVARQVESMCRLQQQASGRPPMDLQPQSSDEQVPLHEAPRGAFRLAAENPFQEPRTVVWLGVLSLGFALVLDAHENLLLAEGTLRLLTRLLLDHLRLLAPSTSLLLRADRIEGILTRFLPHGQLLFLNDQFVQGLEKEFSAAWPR
Method in brief: (§1)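 Values are fold changes against the detergent-processed vehicle, based on vsn-normalised intensities. Jurkat crude lysate was treated at eight concentrations from 0.1 to 10 mM (10 min at room temperature, then 3 min at 37 °C), solubilised with 0.8% NP40 and benzonase, ultracentrifuged and analysed by TMT-labelled LC-MS/MS over three independent experiments.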

[1] = molecular target: T2, UniProt Q9NVH6 and related entries
T2 sequence (whole entry): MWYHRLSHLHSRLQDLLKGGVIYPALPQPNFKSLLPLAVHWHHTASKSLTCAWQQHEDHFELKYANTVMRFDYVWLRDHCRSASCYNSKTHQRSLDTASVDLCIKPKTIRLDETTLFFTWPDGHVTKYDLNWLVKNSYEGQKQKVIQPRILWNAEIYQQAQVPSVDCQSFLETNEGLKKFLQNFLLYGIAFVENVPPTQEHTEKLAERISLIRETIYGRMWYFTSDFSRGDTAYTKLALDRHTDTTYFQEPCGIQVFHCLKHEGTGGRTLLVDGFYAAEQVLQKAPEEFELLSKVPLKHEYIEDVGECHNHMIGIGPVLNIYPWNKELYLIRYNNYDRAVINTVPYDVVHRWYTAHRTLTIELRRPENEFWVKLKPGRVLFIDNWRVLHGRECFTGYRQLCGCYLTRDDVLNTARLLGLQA
Method in brief: as §1

[2] = molecular target: T3, UniProt Q9NVS9 and related entries
T3 sequence (whole entry): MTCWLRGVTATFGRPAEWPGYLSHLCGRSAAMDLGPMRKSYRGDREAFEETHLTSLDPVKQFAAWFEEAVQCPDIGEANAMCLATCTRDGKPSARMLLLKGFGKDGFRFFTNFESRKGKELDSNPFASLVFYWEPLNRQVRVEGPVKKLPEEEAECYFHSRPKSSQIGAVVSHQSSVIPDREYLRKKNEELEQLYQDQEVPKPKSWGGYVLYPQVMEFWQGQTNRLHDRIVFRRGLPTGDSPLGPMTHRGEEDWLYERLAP
Method in brief: as §1

[3] = molecular target: T4, UniProt Q9NWS8 and related entries
T4 sequence (whole entry): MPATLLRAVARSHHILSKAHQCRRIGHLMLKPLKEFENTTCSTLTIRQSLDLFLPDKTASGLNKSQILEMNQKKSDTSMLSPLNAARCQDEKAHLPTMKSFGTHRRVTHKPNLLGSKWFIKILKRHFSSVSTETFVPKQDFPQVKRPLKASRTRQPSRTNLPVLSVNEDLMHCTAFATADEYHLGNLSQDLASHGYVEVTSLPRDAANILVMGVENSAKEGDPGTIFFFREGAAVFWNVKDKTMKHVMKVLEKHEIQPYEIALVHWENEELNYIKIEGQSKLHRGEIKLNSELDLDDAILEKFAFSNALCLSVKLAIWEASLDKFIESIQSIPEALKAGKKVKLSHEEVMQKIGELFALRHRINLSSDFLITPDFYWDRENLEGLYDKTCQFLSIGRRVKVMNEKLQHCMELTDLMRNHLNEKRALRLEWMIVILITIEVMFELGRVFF
Method in brief: as §1

[4] = molecular target: T5, UniProt Q9P0N9 and related entries
T5 sequence (whole entry): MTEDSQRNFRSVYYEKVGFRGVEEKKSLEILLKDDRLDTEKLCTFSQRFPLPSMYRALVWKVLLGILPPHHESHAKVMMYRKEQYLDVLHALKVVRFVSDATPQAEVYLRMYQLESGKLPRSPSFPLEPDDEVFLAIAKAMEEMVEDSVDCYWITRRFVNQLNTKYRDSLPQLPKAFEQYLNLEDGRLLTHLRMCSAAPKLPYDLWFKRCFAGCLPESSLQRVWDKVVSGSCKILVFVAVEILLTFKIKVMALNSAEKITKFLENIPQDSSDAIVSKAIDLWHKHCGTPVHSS
Method in brief: as §1

VPS45 = molecular target: T6, VPS45 (UniProt Q9NRW7)
T6 sequence (whole entry): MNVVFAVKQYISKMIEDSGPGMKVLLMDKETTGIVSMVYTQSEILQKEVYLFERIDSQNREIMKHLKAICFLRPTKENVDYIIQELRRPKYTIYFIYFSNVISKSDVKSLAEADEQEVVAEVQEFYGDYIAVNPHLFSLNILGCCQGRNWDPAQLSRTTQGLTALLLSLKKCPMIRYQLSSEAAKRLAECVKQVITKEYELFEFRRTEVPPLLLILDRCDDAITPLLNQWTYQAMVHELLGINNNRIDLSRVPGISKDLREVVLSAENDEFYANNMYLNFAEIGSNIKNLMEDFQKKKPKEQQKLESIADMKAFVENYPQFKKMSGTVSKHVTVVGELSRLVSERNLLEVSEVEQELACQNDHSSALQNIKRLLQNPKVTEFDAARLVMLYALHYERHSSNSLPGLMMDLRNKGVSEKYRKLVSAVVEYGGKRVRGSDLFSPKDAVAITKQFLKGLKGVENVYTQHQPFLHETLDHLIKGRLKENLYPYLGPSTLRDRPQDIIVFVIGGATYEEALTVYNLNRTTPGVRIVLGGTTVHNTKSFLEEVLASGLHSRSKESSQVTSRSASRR
Method in brief: as §1

Nc1ncnc2c1ncn2[C@@H]1O[C@H](COP(=O)(O)OP(=O)(O)OP(=O)(O)O)[C@@H](O)[C@H]1O [adenosine triphosphate]
NP40-soluble protein abundance (UniProt Q9NUS5; concentration: 8mM): 0.957 ± 0.015 | NP40-soluble protein abundance (UniProt Q9NUS5; concentration: 10mM): 0.9157 ± 0.0086 | NP40-soluble protein abundance ([1]; concentration: 1mM): 0.993 ± 0.072 | NP40-soluble protein abundance ([1]; concentration: 2mM): 1.04 ± 0.054 | NP40-soluble protein abundance ([1]; concentration: 4mM): 1.02 ± 0.026 | NP40-soluble protein abundance ([1]; concentration: 6mM): 0.943 ± 0.019 | NP40-soluble protein abundance ([1]; concentration: 8mM): 1.01 ± 0.027 | NP40-soluble protein abundance ([1]; concentration: 10mM): 0.987 ± 0.076 | NP40-soluble protein abundance ([2]; concentration: 1mM): 0.987 ± 0.018 | NP40-soluble protein abundance ([2]; concentration: 2mM): 0.9567 ± 0.0071 | NP40-soluble protein abundance ([2]; concentration: 4mM): 0.9425 ± 0.0058 | NP40-soluble protein abundance ([2]; concentration: 6mM): 0.9778 ± 0.0094 | NP40-soluble protein abundance ([2]; concentration: 8mM): 0.951 ± 0.012 | NP40-soluble protein abundance ([2]; concentration: 10mM): 0.925 ± 0.032 | NP40-soluble protein abundance ([3]; concentration: 1mM): 1 ± 0.057 | NP40-soluble protein abundance ([3]; concentration: 2mM): 0.972 ± 0.07 | NP40-soluble protein abundance ([3]; concentration: 4mM): 0.972 ± 0.11 | NP40-soluble protein abundance ([3]; concentration: 6mM): 0.919 ± 0.089 | NP40-soluble protein abundance ([3]; concentration: 8mM): 0.98 ± 0.08 | NP40-soluble protein abundance ([3]; concentration: 10mM): 0.9637 ± 0.0081 | NP40-soluble protein abundance ([4]; concentration: 1mM): 1 ± 0.071 | NP40-soluble protein abundance ([4]; concentration: 2mM): 0.996 ± 0.066 | NP40-soluble protein abundance ([4]; concentration: 4mM): 0.985 ± 0.045 | NP40-soluble protein abundance ([4]; concentration: 6mM): 0.973 ± 0.029 | NP40-soluble protein abundance ([4]; concentration: 8mM): 0.969 ± 0.029 | NP40-soluble protein abundance ([4]; concentration: 10mM): 1.06 ± 0.11 | NP40-soluble protein abundance (VPS45; concentration: 1mM): 0.973 ± 0.1 | NP40-soluble protein abundance (VPS45; concentration: 2mM): 0.975 ± 0.08 | NP40-soluble protein abundance (VPS45; concentration: 4mM): 0.96 ± 0.082 | NP40-soluble protein abundance (VPS45; concentration: 6mM): 0.908 ± 0.096 | NP40-soluble protein abundance (VPS45; concentration: 8mM): 0.949 ± 0.062 | NP40-soluble protein abundance (VPS45; concentration: 10mM): 0.978 ± 0.07
